Source: PMC5584526
No constants are given. Whether binding was seen depends on the method and setting. In cells and extracts the contact can be indirect. Some results given as binding are weak or reduced against the parent protein; the word gives no strength.

Molecular target: T1, p47^phox (mouse (endogenous in BMDM)) (UniProt Q09014)
T1 sequence: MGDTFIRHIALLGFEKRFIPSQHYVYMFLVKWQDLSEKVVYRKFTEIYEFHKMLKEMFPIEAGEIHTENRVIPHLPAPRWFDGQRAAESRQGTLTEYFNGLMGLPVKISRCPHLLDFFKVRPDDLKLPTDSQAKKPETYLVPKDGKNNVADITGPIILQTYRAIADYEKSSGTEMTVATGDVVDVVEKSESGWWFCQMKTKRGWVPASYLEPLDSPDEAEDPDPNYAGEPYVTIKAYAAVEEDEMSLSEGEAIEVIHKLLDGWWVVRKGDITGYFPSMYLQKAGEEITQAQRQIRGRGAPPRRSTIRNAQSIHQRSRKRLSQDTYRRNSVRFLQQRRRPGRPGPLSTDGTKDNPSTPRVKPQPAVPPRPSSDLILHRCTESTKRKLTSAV
Experiment: co-IP; lysates of WT BMDM treated with BCM (40 μl/ml) for 0-18 h; immunoprecipitated with anti-p47phox antibody on Dynabeads protein G; immunoblot for gp91phox

B1: gp91^phox (protein, UniProt Q61093 1-570)
chain: MGNWAVNEGLSIFVILVWLGLNVFLFINYYKVYDDGPKYNYTRKLLGSALALARAPAACLNFNCMLILLPVCRNLLSFLRGSSACCSTRIRRQLDRNLTFHKMVAWMIALHTAIHTIAHLFNVEWCVNARVGISDRYSIALSDIGDNENEEYLNFAREKIKNPEGGLYVAVTRLAGITGIVITLCLILIITSSTKTIRRSYFEVFWYTHHLFVIFFIGLAIHGAERIVRGQTAESLEEHNLDICADKIEEWGKIKECPVPKFAGNPPMTWKWIVGPMFLYLCERLVRFWRSQQKVVITKVVTHPFKTIELQMKKKGFKMEVGQYIFVKCPKVSKLEWHPFTLTSAPEEDFFSIHIRIVGDWTEGLFNACGCDKQEFQDAWKLPKIAVDGPFGTASEDVFSYEVVMLVGAGIGVTPFASILKSVWYKYCDNATSLKLKKIYFYWLCRDTHAFEWFADLLQLLETQMQERNNANFLSYNIYLTGWDESQANHFAVHHDEEKDVITGLKQKTLYGRPNWDNEFKTIASEHPNTTIGVFLCGPEALAETLSKQSISNSESGPRGVHFIFNKENF
binding: binds
